PubChem BioAssay AID1259282 – Sanger Institute | 2017
The whole screen tested 794 reagents; below is an unselected part. 11 of them (1.4%) were called active. 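Calls flag knock-downs that lower viability without drug; drug synergy appears only in the synergy scores; exposure time not stated.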 A number with no mark means an inactive call. No viability above 1 is reported: the scale is capped. Not given: the amount of reagent, the time to read-out.

- Assay: 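siRNA screen across the kinome seeking drug combinations lethal to colorectal cancer cells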 (primary screen)
- System: DIFI human colorectal cancer cell line
- Knock-down reagent: siRNA pool against human genes
- Challenge: anchor drug at a mild dose (BYL719 1 µM, cetuximab 5 µg/ml, trametinib 10 nM) or DMSO vehicle; exposure time not given
- Detection: 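Viability relative to non-targeting pool wells, replicate mean, in DMSO or low-dose BYL719, cetuximab or trametinib; robust z-score without drug; synergy score per drug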
- Direction: robust z-score, knock-down alone: higher = more viable cells than typical knock-down; viability, knock-down alone: higher = more viable cells; synergy score with trametinib and synergy score with cetuximab and synergy score with BYL719: higher = stronger combined killing with drug
- Active means: 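Essential when the robust z-score of the knock-down without drug falls below -3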
- Meaning of the calls: active = essential (knock-down alone, z below -3); inactive = not essential

| Target gene | robust z-score, knock-down alone | viability, knock-down alone (fraction of control) | synergy score with trametinib | synergy score with cetuximab | synergy score with BYL719 |
| --- | --- | --- | --- | --- | --- |
| CDKL4 | -3.34 (active) | 0.411 | 0.081 | 0.0713 | 0.0226 |
| TYRO3 | 0.056 | 0.904 | -0.0348 | -0.068 | -0.0481 |
| DMPK | 0.0776 | 0.907 | -0.0765 | -0.00984 | -0.0583 |
| CKMT1B | -0.169 | 0.872 | 0.119 | 0.0203 | -0.0298 |
| CDKN1C | 0.715 | 1 | 0.125 | 0.0858 | -0.141 |
| CLK2 | 0.715 | 1 | -0.0549 | -0.118 | -0.0998 |
| ADGRL2 | 0.715 | 1 | -0.0815 | -0.133 | -0.359 |
| PAK2 | -0.793 | 0.781 | 0.0498 | -0.0302 | -0.0841 |
| PHKA1 | 0.715 | 1 | -0.149 | 0.0122 | -0.315 |
| MAP3K2 | 0.465 | 0.964 | -0.162 | -0.13 | -0.282 |
| MVK | 0.213 | 0.927 | 0.143 | 0.106 | -0.0268 |
| CREBBP | -1.15 | 0.73 | 0.0669 | -0.0479 | -0.0284 |
| PRPS2 | -0.02 | 0.893 | 0.0266 | -0.0127 | -0.115 |
| TBX3 | 0.715 | 1 | -0.076 | -0.0478 | -0.297 |
| MAP2K7 | 0.635 | 0.988 | 0.0937 | -0.0595 | -0.135 |
| STK40 | -0.39 | 0.84 | 0.0355 | -0.00634 | 0.0587 |
| PKN1 | 0.715 | 1 | -0.153 | 0.0251 | -0.362 |
| CLK3 | 0.536 | 0.974 | 0.0406 | 0.0708 | -0.255 |
| CDC73 | -0.514 | 0.822 | -0.0715 | -0.16 | -0.265 |
| GSK3B | 0.715 | 1 | -0.0122 | -0.00808 | -0.0591 |
| CHD4 | -2.06 | 0.597 | 0.0567 | 0.0885 | 0.0196 |
| NUCKS1 | 0.715 | 1 | 0.0111 | -0.182 | -0.239 |
| IRAK1 | -0.439 | 0.832 | 0.113 | 0.107 | -0.0358 |
| DGKA | -1.56 | 0.669 | 0.0544 | 0.0303 | 0.0182 |
| UCK1 | -0.149 | 0.875 | 0.0104 | -0.136 | -0.0836 |
| JAK2 | 0.715 | 1 | -0.00883 | -0.0761 | -0.158 |
| DYRK1A | 0.715 | 1 | -0.0578 | -0.0391 | -0.278 |
| ABL2 | 0.715 | 1 | 0.157 | -0.02 | 0.116 |
| CSNK2A2 | -0.857 | 0.772 | 0.193 | 0.125 | 0.219 |
| IDH2 | 0.715 | 1 | 0.116 | 0.0947 | 0.0898 |
| PFKFB3 | -0.169 | 0.872 | 0.248 | 0.172 | 0.0903 |
| TLK2 | 0.529 | 0.973 | -0.273 | -0.279 | -0.262 |
| MAPK8 | 0.715 | 1 | -0.0979 | 0.0492 | -0.203 |

The list goes on (5 carried over from the part before).
| Target gene | robust z-score, knock-down alone | viability, knock-down alone (fraction of control) | synergy score with trametinib | synergy score with cetuximab | synergy score with BYL719 |
| --- | --- | --- | --- | --- | --- |
| CSNK2A2 | -0.857 | 0.772 | 0.193 | 0.125 | 0.219 |
| IDH2 | 0.715 | 1 | 0.116 | 0.0947 | 0.0898 |
| PFKFB3 | -0.169 | 0.872 | 0.248 | 0.172 | 0.0903 |
| TLK2 | 0.529 | 0.973 | -0.273 | -0.279 | -0.262 |
| MAPK8 | 0.715 | 1 | -0.0979 | 0.0492 | -0.203 |
| CAMK1D | 0.277 | 0.936 | 0.202 | 0.0555 | 0.0201 |
| TAOK2 | 0.715 | 1 | 0.0499 | -0.026 | -0.309 |
| STK24 | 0.715 | 1 | -0.0822 | 0.0763 | -0.241 |
| GRK4 | -2.05 | 0.598 | -0.0848 | -0.0372 | 0.0646 |
| RFK | 0.715 | 1 | -0.00331 | -0.0427 | -0.0698 |
| CSNK2A1 | 0.715 | 1 | 0.121 | 0.0137 | -0.328 |
| PIP5KL1 | -0.607 | 0.808 | -0.00169 | -0.0176 | -0.24 |
| STK11 | -0.866 | 0.77 | 0.115 | 0.0256 | 0.0499 |
| GATA3 | -0.268 | 0.857 | -0.138 | -0.162 | -0.254 |
| CHD9 | -0.423 | 0.835 | 0.0313 | 0.0182 | -0.112 |
| MAP3K10 | 0.715 | 1 | 0.12 | -0.191 | -0.287 |
| CAMKK2 | 0.715 | 1 | 0.0278 | 0.117 | -0.169 |
| ETNK2 | -1.45 | 0.685 | 0.0292 | -0.000643 | -0.35 |
| PCK1 | -1.63 | 0.659 | -0.126 | -0.193 | -0.149 |
| IGF2R | 0.715 | 1 | -0.0639 | -0.115 | -0.226 |
| ZC3H11A | 0.715 | 1 | 0.12 | -0.0234 | -0.0294 |
| SCYL3 | -1.24 | 0.716 | 0.167 | 0.0982 | 0.00934 |
